Measured values published in the supplement of paper PMC11006884.
Only a part is listed here, and it is no random draw.

Compound: COC(=O)C#Cc1ccccc1 [methyl 3-phenylpropiolate]
Experiment: log2 ratio of iodoacetamide-alkyne labeling of the cysteine site, DMSO over compound (competition); higher = stronger covalent engagement of the cysteine by the compound, active = 1 or more
Conditions: 500 µM; treatment time 1 h; system: HEK293T cell lysate
How it was run: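 HEK293T lysate at 2 mg/mL was treated with vehicle or electrophile (500 µM) for 1 h at ambient temperature, then labelled with iodoacetamide alkyne (1 h), clicked to sCIP-TMT reagents, pooled, digested with trypsin overnight at 37 °C, enriched on streptavidin and eluted with acid. Peptides were analysed by Orbitrap Eclipse LC-MS/MS with FAIMS and quantified in FragPipe, using duplicate channels and three replicates, with cysteines quantified in only one replicate excluded. The log2 competition ratio for each cysteine is the mean control-channel reporter intensity divided by the mean compound-channel reporter intensity.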

Target | log2 ratio of iodoacetamide-alkyne labeling
UniProt Q99683_C928 | inactive: 0.343
UniProt Q96SY0_C193 | inactive: 0.38
ELAC2 C51 (UniProt Q9BQ52) | inactive: 0.178
NCAPG C202 (UniProt Q9BPX3) | inactive: 0.0426
PAWR C173 (UniProt Q96IZ0) | inactive: 0.32
MACROD1 C199 (UniProt Q9BQ69) | inactive: -0.0967
WDFY2 C290 (UniProt Q96P53) | inactive: -0.231
MACROD1 C116 (UniProt Q9BQ69) | inactive: -0.00707
MIPEP C649 (UniProt Q99797) | inactive: 0.385
ZNF512 C540 (UniProt Q96ME7) | inactive: 0.328
RANBP9 C719 (UniProt Q96S59) | inactive: 0.16
VCPIP1 C1178 (UniProt Q96JH7) | inactive: 0.129
FNBP1 C130 (UniProt Q96RU3) | inactive: 0.489
YME1L1 C433 (UniProt Q96TA2) | inactive: -0.0482
GRWD1 C11 (UniProt Q9BQ67) | inactive: 0.413
UniProt Q9BQ61_C165 | inactive: 0.332
CDK5RAP2 C249 (UniProt Q96SN8) | inactive: 0.522
UniProt Q96JM3_C787 | inactive: 0.141
KIF2C C245 (UniProt Q99661) | inactive: 0.243
ARAP1 C900 (UniProt Q96P48) | inactive: 0.272
PYURF C60 (UniProt Q96I23) | inactive: 0.242
UHRF1 C410 (UniProt Q96T88) | inactive: 0.266
NSD1 C2508 (UniProt Q96L73) | inactive: 0.287
TBCB C216 (UniProt Q99426) | inactive: 0.245
RSF1 C1018 (UniProt Q96T23) | inactive: 0.251
EHMT2 C866 (UniProt Q96KQ7) | inactive: -0.0266

Target | log2 ratio of iodoacetamide-alkyne labeling
CCT7 C364 (UniProt Q99832) | inactive: 0.324
SRPK1 C647 (UniProt Q96SB4) | inactive: 0.367
CCT7 C511 (UniProt Q99832) | inactive: -0.0842
UniProt Q96L50_C246 | inactive: 0.109
UniProt Q96NC0_C87 | inactive: 0.134
USP28 C203 (UniProt Q96RU2) | inactive: 0.234
PTPN18 C310 (UniProt Q99952) | inactive: 0.235
UniProt Q99590_C478 | inactive: 0.396
FUBP3 C460 (UniProt Q96I24) | inactive: 0.36
RNF5 C27 (UniProt Q99942) | inactive: 0.0657
UHRF1 C170 (UniProt Q96T88) | inactive: 0.462
SMG1 C2304 (UniProt Q96Q15) | inactive: -0.0684
MYBBP1A C890 (UniProt Q9BQG0) | inactive: 0.188
FBXL18 C423 (UniProt Q96ME1) | inactive: 0.278
ZFR C974 (UniProt Q96KR1) | inactive: 0.302
ZNF512 C324 (UniProt Q96ME7) | inactive: 0.191
UniProt Q96JA1_C1066 | inactive: 0.118
WRNIP1 C39 (UniProt Q96S55) | inactive: -0.0706
NABP2 C99 (UniProt Q9BQ15) | inactive: 0.315
GRWD1 C299 (UniProt Q9BQ67) | inactive: 0.364
PSMB7 C86 (UniProt Q99436) | inactive: 0.264
POP1 C408 (UniProt Q99575) | inactive: -0.153
VRK1 C50 (UniProt Q99986) | inactive: 0.344
MMS19 C331 (UniProt Q96T76) | inactive: 0.00283
PARK7 C53 (UniProt Q99497) | inactive: -0.0888
CRBN C287 (UniProt Q96SW2) | inactive: 0.13
